## Library screen at single concentrations

Results are given as percent effect. How 0% and 100% were set is not recorded. Most values in the screen are low, and negative values occur. The compounds are a random part of those screened.

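Whole-parasite assay of Trypanosoma brucei over 72 hours; the read-out is not stated. Concentration: 30 µM. The record gives no direction; compounds that gave an IC50 in retests scored well above the rest, so higher reads as stronger inhibition. Values scatter widely below zero; nearly all retest evidence comes from the higher of the two concentrations used. About 64,000 compounds were tested under these conditions; 1.5% (about 940) showed 50% or more at least once.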

| Compound | Percent Effect |
|---|---|
| `COCCN(Cc1ccc(F)cc1Cl)C(=O)c1cc(C)n[nH]1` | -22.94% |
| `O=C(O)C(F)(F)F.[H][C@@]12CCN(c3ncccn3)[C@@]1([H])CCN2C(=O)N1CCCC1` | -10.88% |
| `CCNc1ncc2c(n1)CN(c1ccc(C)c(C)c1)C2=O` | -36.73% |
| `CC(C)CN1CC[C@H](c2nnc(COc3ccc(F)cc3)o2)C1` | -15.54% |
| `CCc1ccc(CCC(=O)NCc2nnc[nH]2)cc1` | -14.42% |
| `Cc1oncc1C(=O)N1CCC2(CC1)C(c1cnn(C)c1)CC(=O)N2C` (stereo not given) | 22.31% |
| `O=C(c1cccc(Cl)c1)N1CCCC(Nc2ccc(F)cc2)C1` (stereo not given) | -25.95% |
| `Cc1ccc(S(=O)(=O)N(C)CC(C)O)c(F)c1` (stereo not given) | -34.95% |
| `CC(Cn1cccn1)NCC(=O)NC1(C#N)CCCCC1` (stereo not given) | 4.935% |
| `CC(C)=CCn1ncc(N2CCCCC2)cc1=O` | -24.86% |
| `CCC(CO)N(Cc1cccnc1)C(=O)c1ccncc1F` (stereo not given) | -36.81% |
| `CNS(=O)(=O)CC(=O)N(Cc1ccsc1)c1ccccc1` | -15.11% |
| `CCN(Cc1ccncc1)C(=O)C(C)n1ccnc1C(C)C` (stereo not given) | -18.41% |
| `NCC1Cc2cc(F)cc(-c3cnccn3)c2O1` (stereo not given) | -12.95% |
| `COc1ccc(N(c2ccc(OC)cc2)c2ccc(C(=O)O)s2)cc1` | 29.29% |
| `CSc1ccc(OC(C)C(=O)Nc2cc[nH]n2)cc1` (stereo not given) | -36.2% |
| `COc1ccc(CNC(C)c2cn[nH]c2C)cc1` (stereo not given) | -36.14% |
| `[H][C@@]12CC[C@H](Oc3cccc(F)c3)[C@]1([H])CN(C(=O)c1ccnn1C)C2` | 22.34% |
| `Cc1ccc(C)c(NC(=O)c2coc(C)n2)c1` | -16.25% |
| `O=C(Cc1ccccc1)N1CCC2(CC(=O)N(c3ccsc3)C2)C1` (stereo not given) | -5.503% |
| `COc1cc(OC)c(C2Nc3cc(Cl)ccc3C3=NCCN32)cc1OC` (stereo not given) | 4.882% |
| `CC(=O)N(Cc1ncc(C(C)C)o1)C1CCN(Cc2ncc[nH]2)C1` (stereo not given) | 39.12% |
| `N#Cc1cccc(CN2CCN(Cc3cscn3)CC2)c1` | 18.79% |
| `COC(=O)[C@@H]1CCCN1C(=O)c1cn(CCCc2ccccc2)nn1` | -2.95% |
| `CC(=O)N1CCCC2(CCN(c3ccccc3)C2=O)C1` (stereo not given) | -21.12% |
| `CN(CCNC(=O)Nc1ccn(C)n1)Cc1ccc(F)cc1` | -33.89% |
| `COCCNc1cccc(C2CCCN2)n1` (stereo not given) | -5.123% |
| `N#Cc1ccc(C(=O)NCCCNc2ccc(C(F)(F)F)cn2)cc1` | 0.4176% |
| `O=C(O)CC(O)(CC(=O)O)C(=O)O.OCCN(Cc1ccncc1)CC1(c2ccc(Cl)cc2)CC1` | -34.12% |
| `COc1cc(CNC(C)Cn2ccnc2)cc2c1OCO2.Cl` (stereo not given) | 4.669% |
| `Cn1cnnc1S(=O)(=O)Cc1cc(Cl)c2c(c1)OCCO2` | -17.11% |
| `O=C(Nc1nncs1)C1CSCN1C(=O)C1CCCC1` (stereo not given) | -34.73% |
| `CCc1nccn1C1CCCN(C(=O)c2ccc3[nH]cnc3c2)C1` (stereo not given) | 18.09% |
| `COc1ccc(C(=O)N2CCCC(C)C2)cc1F` (stereo not given) | 4.79% |
| `CN(CCNC(=O)c1cnc(-c2ccncc2)nc1)S(C)(=O)=O` | 61.08% |
| `COCC1CN(c2ccc3c(Cl)ccnc3c2F)CCO1` (stereo not given) | -20.53% |
| `Cc1ccc(CC(=O)N2CCCCC2c2nc(C)cs2)cn1` (stereo not given) | -15.44% |
| `CNC(=O)[C@@H]1[C@@H](OC(=O)Nc2ccccc2)C(=O)N(C)C12CCNCC2` | 13.53% |
| `O=S(=O)(NCCNc1ccc(-n2cccc2)nn1)c1cccs1` | 5.623% |
| `[H][C@]12CCC[C@@]1(COC)CN(C(=O)N1CCCC1)C2` | -7.087% |
| `Cc1cnc(C(=O)N[C@H]2CN(CCS(C)(=O)=O)C[C@@H]2C2CC2)cn1` | -47.49% |
| `OC(CN1CCOCC1)CN1CCc2c(ncn2C2CC2)C1` (stereo not given) | -18.77% |
| `CC(C)n1cnc2c1C(C(=O)N1CCCC1)N(S(C)(=O)=O)CC2` (stereo not given) | -44.53% |
| `CC(=O)N1CCC2(CCCN(S(=O)(=O)c3ccccc3)C2)C1` (stereo not given) | -16.54% |
| `CCN(CCO)C(=O)C1CCC(=O)N(Cc2cccc(OC)c2)C1` (stereo not given) | -0.5971% |
| `CNC(=O)C1CCCN(c2nc3c(-c4ccccc4)csc3c(=O)[nH]2)C1` (stereo not given) | 2.754% |
| `CN(C)C(=O)c1cn[nH]c1C1(C)CCCN(Cc2ccccn2)C1` (stereo not given) | 10.32% |
| `COc1cccc(CN2CC[C@H](c3nnc(-c4ccco4)o3)C2)c1` | -60.46% |
| `O=C(O)C(F)(F)F.[H][C@]12CCN(c3ncccn3)[C@@]1([H])CC[C@@H](COCc1csc(C)n1)O2` | 30.7% |
| `CCc1cc(NCCCC2CCOC2)n2nccc2n1` (stereo not given) | 11.23% |
| `Cc1csc(N2CCN(C(=O)CCn3cncn3)CC2)n1` | -21.54% |
| `Cc1cc(C2CCN(S(=O)(=O)N(C)C)CC2)ccn1` | -24.15% |
| `CN(CCc1ccccn1)C1CCCN(Cc2noc(C3CC3)n2)C1` (stereo not given) | -6.675% |
| `O=C(c1ccc(O)c(Cl)c1)N1CCC(c2n[nH]c(C3CC3)n2)CC1` | 4.263% |
| `CNc1nc(CNC(=O)Nc2ccc(OC(C)C)cc2C)cs1` | -22.19% |
| `COCCS(=O)(=O)N(Cc1cscn1)c1ccccc1` | -7.887% |
| `Cc1nc(N2CCCC2)nc(N2CCC(O)(C(=O)O)CC2)c1C` | -8.407% |
| `CCc1sc(C(=O)N2CCC(Nc3ccc(C)nn3)CC2)cc1C` | 7.077% |
| `Cc1ccsc1CN(CCN(C)C)C(=O)C1=NNC(=O)CC1` | -20.76% |
| `O=C(O)C(F)(F)F.[H][C@@]12CCCO[C@]1([H])[C@H](OCc1cccnc1)CN2C(=O)c1cnccn1` | -16.37% |
| `COCC(=O)N[C@@H]1CN(Cc2c[nH]nc2-c2cccs2)C[C@H]1O` | 4.957% |
| `CN(Cc1ccsc1)C(=O)c1nc(N2CCCCC2)ncc1Cl` | -57.2% |
| `O=C(O)C(F)(F)F.[H][C@@]12C[C@@H](c3nnc(C)[nH]3)O[C@]1([H])CN(C(=O)c1c(C)noc1C)C2` | -70.44% |
| `Cc1cc(C)n(CC2CCCN2CCCS(N)(=O)=O)n1` (stereo not given) | -14.29% |
| `COc1nc2c(cc1C(=O)N(C)Cc1noc3c1CCCC3)CCC2` | -8.632% |
| `Cc1nc(N(C)C)nc(C)c1NS(=O)(=O)c1ccc(OC(F)(F)F)cc1` | -8.47% |
| `Cc1ccsc1[C@@H]1CCN(C(=O)CCc2n[nH]c(C)c2C)C[C@H]1O` | 4.305% |
| `CCS(=O)(=O)N1CCN(CCn2cccn2)c2nc(C)ccc2C1.O=C(O)C(F)(F)F` | -50.56% |
| `O=C(O)C(F)(F)F.O=C(O)C(F)(F)F.O=c1ccc2c(n1CCN1CCCC1)CCN(Cc1ccoc1)CC2` | 8.088% |
| `[H][C@@]12CCN(C[C@@H]1C(=O)Nc1ccccc1)[C@@H](Cn1cc(CCO)nn1)C2` | -8.485% |
| `Cc1nc2ccnn2c(C)c1CCC(=O)N1CCN2CCCCC2C1` (stereo not given) | 19.68% |
| `CCc1nc(C(=O)N2CCCC2)nn1-c1ccccc1Cl` | 10.15% |
| `COCCN1CCN(Cc2nnc(-c3occc3C)o2)CC1` | -10.75% |
| `Cc1ncsc1CCN(C)C(=O)c1ccc(CN2CCCCC2)cc1` | -18.02% |
| `Cc1n[nH]c(C)c1CNC(=O)CSCc1ccccc1Cl` | -38.58% |
| `CC(C)C1CN(C(=O)c2cc(=O)[nH]c(=O)[nH]2)CCCN1CC1CC1` (stereo not given) | -27.54% |
| `COc1cc(CNC(C)Cn2cccn2)cc(OC)c1OC.Cl` (stereo not given) | 7.655% |
| `Cc1ccc2nc(C(=O)N3C[C@@H](C(=O)O)[C@H](c4cccnc4)C3)cn2c1` | -6.886% |
| `[H][C@]12CNC[C@@]1(C(=O)NCCS(=O)(=O)NC)CN(C1CCCC1)C2` | 14.15% |
| `Cc1cc(C)n(CC(C)NCc2cnc3c(C)cccn23)n1` (stereo not given) | 2.198% |
| `Cc1cccc(CNC(=O)Nc2ccn(CCCC(=O)N(C)C)n2)c1` | -16.31% |
| `O=C(O)C(F)(F)F.[H][C@@]12CN(CCOC)C[C@]1([H])[C@@H](OC)CCN2C(=O)Cc1ccccc1` | -3.428% |
| `[H][C@@]12COC[C@]1([H])[C@@H](OCCN(C)C)CN2C(=O)c1ccc2c(c1)OCO2` | -75.46% |
| `Cc1ccc(OCCCNC(=O)NC(C)c2nncn2C)cc1` (stereo not given) | -1.314% |
| `O=C(O)C(F)(F)F.[H][C@@]12CCN(Cc3cccc(C)c3)C[C@]1(C(=O)NC)CCO2` | -20.87% |
| `CSc1ncccc1C(=O)N(CCO)Cc1ccccc1` | -16.5% |
| `Clc1ccccc1C1(c2ccnc(-c3ncccn3)n2)CCNCC1` | 30.19% |
| `Cc1cc(NC(C)Cc2cccnc2)n2nccc2n1` (stereo not given) | 7.26% |
| `Cc1ccccc1N1CCN(c2nc(N(C)C)nc3c2CCNC3)CC1` | -31.91% |
| `CCCc1c(C(=O)N2CCN(Cc3ccccn3)CC2)cnn1C` | -26.59% |
| `CN(Cc1noc(C2CC2)n1)C1CCN(CCc2cnn(C)c2)C1` (stereo not given) | -12.96% |
| `[H][C@@]12C[C@@H](Oc3ccccc3)C[C@]1([H])CN(C(=O)c1cnn(C)c1)C2` | 8.793% |

10 of the entries, repeated:

- O=C(O)C(F)(F)F.[H][C@@]12CCN(c3ncccn3)[C@@]1([H])CCN2C(=O)N1CCCC1 : -10.88%
- CN(CCNC(=O)Nc1ccn(C)n1)Cc1ccc(F)cc1 : -33.89%
- Cc1nc2ccnn2c(C)c1CCC(=O)N1CCN2CCCCC2C1 (stereo not given) : 19.68%
- CCc1ccc(CCC(=O)NCc2nnc[nH]2)cc1 : -14.42%
- COC(=O)[C@@H]1CCCN1C(=O)c1cn(CCCc2ccccc2)nn1 : -2.95%
- CC(C)C1CN(C(=O)c2cc(=O)[nH]c(=O)[nH]2)CCCN1CC1CC1 (stereo not given) : -27.54%
- Cc1ccc(OCCCNC(=O)NC(C)c2nncn2C)cc1 (stereo not given) : -1.314%
- CSc1ncccc1C(=O)N(CCO)Cc1ccccc1 : -16.5%
- O=C(Nc1nncs1)C1CSCN1C(=O)C1CCCC1 (stereo not given) : -34.73%
- CC(C)=CCn1ncc(N2CCCCC2)cc1=O : -24.86%

From ChEMBL document CHEMBL3988442, “University of Dundee, Small-Polar-MMV Screening Library” (2021).